Experimental data reported in publication PMC8675923.
No constants are given. Whether binding was seen depends on the method and setting. In cells and extracts the contact can be indirect. Some binding calls cover weakened binding; strength is not graded here.

Sequences of proteins named here, by UniProt entry; tags and fusion partners are left off. Residues count along the entry.
UniProt P03454, residues 18-565: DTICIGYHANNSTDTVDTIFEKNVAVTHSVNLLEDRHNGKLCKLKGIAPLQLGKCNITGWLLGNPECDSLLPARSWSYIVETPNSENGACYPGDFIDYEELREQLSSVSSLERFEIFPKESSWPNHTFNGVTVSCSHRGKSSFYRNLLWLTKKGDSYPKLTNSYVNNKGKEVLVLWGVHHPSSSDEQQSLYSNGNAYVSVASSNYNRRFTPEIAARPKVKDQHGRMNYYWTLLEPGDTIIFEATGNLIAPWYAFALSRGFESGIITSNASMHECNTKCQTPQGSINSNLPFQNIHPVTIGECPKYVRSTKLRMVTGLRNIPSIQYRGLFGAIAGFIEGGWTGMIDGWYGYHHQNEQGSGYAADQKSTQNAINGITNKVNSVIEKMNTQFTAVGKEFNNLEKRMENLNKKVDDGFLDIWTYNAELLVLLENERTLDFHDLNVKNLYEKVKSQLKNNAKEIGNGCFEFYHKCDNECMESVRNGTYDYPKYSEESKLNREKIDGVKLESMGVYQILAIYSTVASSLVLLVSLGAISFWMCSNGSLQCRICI
UniProt Q8TDY8, residues 25-1250: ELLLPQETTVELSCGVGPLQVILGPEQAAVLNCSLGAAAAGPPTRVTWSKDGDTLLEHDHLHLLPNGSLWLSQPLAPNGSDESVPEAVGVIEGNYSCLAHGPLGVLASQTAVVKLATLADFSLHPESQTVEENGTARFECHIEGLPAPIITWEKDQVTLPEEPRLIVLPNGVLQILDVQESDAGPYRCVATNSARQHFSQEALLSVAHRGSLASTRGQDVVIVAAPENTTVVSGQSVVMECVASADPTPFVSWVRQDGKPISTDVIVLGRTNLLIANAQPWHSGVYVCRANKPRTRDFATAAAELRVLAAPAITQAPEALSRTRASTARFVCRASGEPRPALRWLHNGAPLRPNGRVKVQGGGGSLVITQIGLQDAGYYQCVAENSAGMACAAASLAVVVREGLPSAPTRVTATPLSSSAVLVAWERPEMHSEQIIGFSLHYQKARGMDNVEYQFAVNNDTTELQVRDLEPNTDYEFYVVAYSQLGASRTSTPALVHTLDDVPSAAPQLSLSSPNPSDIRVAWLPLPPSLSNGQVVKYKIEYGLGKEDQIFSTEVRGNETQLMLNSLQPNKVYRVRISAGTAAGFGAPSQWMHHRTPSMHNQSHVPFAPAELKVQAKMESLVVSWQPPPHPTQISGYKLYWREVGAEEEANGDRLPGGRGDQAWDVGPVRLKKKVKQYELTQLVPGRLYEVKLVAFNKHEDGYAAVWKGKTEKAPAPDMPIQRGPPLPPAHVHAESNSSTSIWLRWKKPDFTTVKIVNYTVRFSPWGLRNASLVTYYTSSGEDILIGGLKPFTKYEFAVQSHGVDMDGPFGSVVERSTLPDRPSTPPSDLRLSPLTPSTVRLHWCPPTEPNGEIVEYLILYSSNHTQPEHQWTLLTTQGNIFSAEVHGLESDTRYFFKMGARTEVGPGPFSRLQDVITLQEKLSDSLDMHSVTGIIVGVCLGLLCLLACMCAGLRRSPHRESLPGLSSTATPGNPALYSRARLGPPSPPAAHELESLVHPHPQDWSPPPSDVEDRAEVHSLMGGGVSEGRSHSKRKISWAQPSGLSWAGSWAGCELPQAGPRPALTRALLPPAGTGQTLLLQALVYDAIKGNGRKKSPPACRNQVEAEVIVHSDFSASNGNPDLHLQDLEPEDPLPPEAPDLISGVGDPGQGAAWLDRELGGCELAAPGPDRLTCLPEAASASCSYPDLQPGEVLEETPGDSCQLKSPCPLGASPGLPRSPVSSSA

Biological target: hemagglutinin (HA) of A/WSN/33(H1N1) virus, Flag-tagged (influenza A virus A/WSN/33(H1N1)) (UniProt P03454)
Assay: co-IP

## immunoglobulin superfamily DCC subclass member 4 (IGDCC4) isoform 1, Myc-tagged (from UniProt Q8TDY8 25-1250)
  binding: binds
